Reference: patent US20200317642A1, “AMINE-SUBSTITUTED HETEROCYCLIC COMPOUNDS AS EHMT2 INHIBITORS AND DERIVATIVES THEREOF” (Epizyme, Inc., priority 2017, published 2020)
The structures given here were assigned with low confidence; some may be wrong.

The chains behind the UniProt entries cited, without tags or fusion partners. Residues count along the entry.
UniProt Q9H9B1, whole entry: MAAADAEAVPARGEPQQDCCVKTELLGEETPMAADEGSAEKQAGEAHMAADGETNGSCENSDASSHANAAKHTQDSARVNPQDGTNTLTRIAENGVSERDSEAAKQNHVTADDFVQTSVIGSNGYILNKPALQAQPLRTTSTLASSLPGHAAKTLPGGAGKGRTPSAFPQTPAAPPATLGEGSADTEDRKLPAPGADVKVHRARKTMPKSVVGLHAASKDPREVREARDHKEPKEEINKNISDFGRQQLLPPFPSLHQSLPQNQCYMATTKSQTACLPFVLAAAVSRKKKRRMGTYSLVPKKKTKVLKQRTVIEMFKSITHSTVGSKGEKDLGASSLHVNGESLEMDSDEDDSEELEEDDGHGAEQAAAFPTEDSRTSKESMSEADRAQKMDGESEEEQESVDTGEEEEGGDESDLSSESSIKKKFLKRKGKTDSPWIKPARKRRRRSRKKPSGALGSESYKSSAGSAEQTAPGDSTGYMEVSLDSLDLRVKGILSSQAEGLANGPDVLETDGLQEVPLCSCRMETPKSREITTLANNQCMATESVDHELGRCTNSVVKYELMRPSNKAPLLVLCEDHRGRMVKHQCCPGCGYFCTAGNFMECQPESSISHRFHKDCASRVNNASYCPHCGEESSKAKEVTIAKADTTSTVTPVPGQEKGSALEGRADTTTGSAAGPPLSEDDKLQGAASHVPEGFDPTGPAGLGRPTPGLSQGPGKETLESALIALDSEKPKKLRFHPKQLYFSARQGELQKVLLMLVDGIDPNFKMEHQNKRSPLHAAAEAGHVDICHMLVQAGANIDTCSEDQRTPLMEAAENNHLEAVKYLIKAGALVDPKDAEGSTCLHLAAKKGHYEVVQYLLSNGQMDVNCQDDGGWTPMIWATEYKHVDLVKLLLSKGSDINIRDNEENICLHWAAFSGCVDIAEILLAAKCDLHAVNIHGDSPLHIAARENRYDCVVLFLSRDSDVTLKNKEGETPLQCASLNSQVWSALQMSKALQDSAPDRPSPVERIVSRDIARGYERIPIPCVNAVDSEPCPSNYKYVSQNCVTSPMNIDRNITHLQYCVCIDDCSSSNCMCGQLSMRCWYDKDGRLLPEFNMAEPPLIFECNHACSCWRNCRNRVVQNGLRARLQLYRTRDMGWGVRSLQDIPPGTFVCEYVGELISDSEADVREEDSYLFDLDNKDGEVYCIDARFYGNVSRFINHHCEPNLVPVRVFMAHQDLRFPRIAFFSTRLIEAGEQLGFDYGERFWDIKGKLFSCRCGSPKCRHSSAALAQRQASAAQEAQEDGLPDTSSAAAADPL
UniProt Q96KQ7, 913-1193 limits assumed: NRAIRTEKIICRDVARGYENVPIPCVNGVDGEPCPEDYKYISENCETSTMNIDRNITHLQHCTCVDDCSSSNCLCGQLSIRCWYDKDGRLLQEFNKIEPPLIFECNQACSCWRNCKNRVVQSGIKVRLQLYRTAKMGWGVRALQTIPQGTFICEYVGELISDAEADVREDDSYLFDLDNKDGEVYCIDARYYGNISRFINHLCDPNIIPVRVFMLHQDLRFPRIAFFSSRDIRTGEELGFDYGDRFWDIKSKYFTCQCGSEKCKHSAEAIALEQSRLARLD

What was measured:
EHMT1 = EHMT1 (Homo sapiens, UniProt Q9H9B1); assay: EHMT1 PEP enzyme assay; assay type: biochemical; conditions: read-out: EHMT1 PEP (IC50 μM); Table 3
human EHMT2 913-1193 = human EHMT2 913-1193 (Homo sapiens, UniProt Q96KQ7); assay: EHMT2 enzyme assay on histone peptide substrate; conditions: read-out: EHMT2 PEP (IC50 μM); Table 3; histone H3 1-15 peptide, balanced conditions
Excerpt: Recombinant purified human EHMT2 913-1193 ([…]) synthesized by Viva was used for all experiments. Biotinylated histone peptides were synthesized by Biopeptide and HPLC-purified to >95% purity. Streptavidin Flashplates and seals were purchased from PerkinElmer and 384 Well V-bottom Polypropylene Plates were from Greiner. ^3H-labeled S-adenosylmethionine (^3H-SAM) was obtained from American Radiolabeled Chemicals with a specific activity of 80 Ci/mmol. Unlabeled SAM and S-adenosylhomocysteine (SAH) were obtained from American Radiolabeled Chemicals and Sigma-Aldrich respectively. Flashplates were washed in a Biotek ELx-405 with 0.1% Tween. 384-well Flashplates and 96-well filter binding plates were read on a TopCount microplate reader (PerkinElmer). Compound serial dilutions were performed on a Freedom EVO (Tecan) and spotted into assay plates using a Thermo Scientific Matrix PlateMate (Thermo Scientific). Reagent cocktails were added by Multidrop Combi (Thermo Scientific).
10-point curves of test compounds were made on a Freedom EVO (Tecan) using serial 3-fold dilutions in DMSO, beginning at 2.5 mM (final top concentration of compound was 50 t and the DMSO was 2%). […] 384-well Flashplates were read on a TopCount microplate reader (PerkinElmer).

[1] = system: H3K9me2 in MDA-MB-231 cells; assay: MDA-MB-231 H3K9me2 in-cell western assay (EHMT2 ICW); conditions: read-out: EHMT2 ICW (IC50 μM), Table 3
Excerpt: MDA-MB-231 cell line was purchased from ATCC (Manassas, Va., USA). RPMI/Glutamax medium, Penicillin-Streptomycin, Heat Inactivated Fetal Bovine Serum, and D-PBS were purchased from Life Technologies (Grand Island, N.Y., USA). Odyssey blocking buffer, 800 CW goat anti-mouse IgG (H+L) antibody, and Licor Odyssey Infrared Scanner were purchased from Licor Biosciences, Lincoln, Nebr., USA. H3K9me2 mouse monoclonal antibody (Cat #1220) was purchased from Abcam (Cambridge, Mass., USA). 16% Paraformaldehyde was purchased from Electron Microscopy Sciences, Hatfield, Pa., USA). […]
Compound (100 nL) was added directly to 384-well cell plate. […] Plates were allowed to dry at room temperature then imaged on a Licor Odyssey Infrared Scanner (Licor Biosciences) which measured integrated intensity at 700 nm and 800 nm wavelengths. […]
First, the ratio for each well was determined by: […]
The average of the ratio values for each well was calculated and used to determine the percent inhibition for each test well in the plate. […] Percent inhibition was calculated as: […]
IC50 curves were generated using triplicate wells per concentration of compound. […] IC50 values were calculated using a non-linear regression (variable slope-four parameter fit model) with by the following formula: […]

Measured: IC50

CNc1cc(C)nc(Nc2ccc(C)c(CNCCN3CCCC3)c2)n1 [22]
> 10 µM: EHMT1 | human EHMT2 913-1193 | [1]
